Patent US20240285634A1, “COMPOUND AND METHOD FOR TREATING CHEMOTHERAPY-ASSOCIATED GASTROINTESTINAL SIDE EFFECTS” (ONQUALITY PHARMACEUTICALS CHINA LTD., priority 2021, published 2024)
This continues a long series; more values of the same kind are listed elsewhere.

Tested on: Chemotherapeutic agent-caused constipation models of Balb/c mice
Assay: Relieving effect on constipation caused by a chemotherapeutic agent (Examples 202-364)
Type: in vivo
From the text: Construction of mouse animal models: Chemotherapeutic agent-caused constipation models of Balb/c mice were constructed according to the administration mode and frequency of the chemotherapeutic agent as shown in Table 4. […] Thus, chemotherapeutic agent-caused constipation models of mice are very good models to mimic constipation caused by the chemotherapeutic agent.
Balb/c mice were fed for 1 week, and then divided into groups. The experiment was divided into a control group, a chemotherapeutic agent group, and a group of the compound as shown in Formula I, each of which comprised 10 mice, to perform the administration experiment, for which the administration dosage, mode, time and frequency were shown in Table 4. The control group: being injected or intragastrically administered with the same solvent as that used in the group of the compound as shown in Formula I (the administration mode and time were shown in Table 4), and then being injected or intragastrically administered with the same solvent as that used in the chemotherapeutic agent group (the administration mode was shown in Table 4); the chemotherapeutic agent group: being injected or intragastrically administered with the same solvent as that used in the group of the compound as shown in Formula I (the administration mode and time was shown in Table 4), and then being injected or intragastrically administered with the chemotherapeutic agent (the type, administration mode and dosage were shown in Table 4); the group of the compound as shown in Formula I: being injected or intragastrically administered with the compound as shown in Formula I (the administration mode and time was shown in Table 4), and then being administered with the chemotherapeutic agent (the administration mode and dosage were shown in Table 4).
The feces reduction rate was calculated with reference to the method of Ji Eun Kim (Lab Anim Res. 2016 December; 32(4): 231-240.). Feces reduction rate (%)=(the control group−the chemotherapeutic agent group or the group of the compound as shown in Formula I)/the control group*100%
It is regarded as effective remission when the feces reduction rate of mice in the group of the compound as shown in Formula I is reduced compared with that in the chemotherapeutic agent group.
The feces amount of mice within 3 hours was observed and recorded every day. At the end of the experiment, the number of mice in the group of the compound as shown in Formula I whose feces reduction rate was lower than that of mice in the chemotherapeutic agent group was recorded. Table 4 lists various animal experiment combinations of chemotherapeutic agents and the compound as shown in Formula I, as well as the corresponding experimental results.

**Q.** With `CN1CCN(c2ccc(Nc3ncc4cc5n(c4n3)C3(CCCCC3)CNC5=O)nc2)CC1` [Compound I, Trilaciclib] as the molecule, how does the “Relative remission rate (%)” value (Example 241, Fluorouracil (5-Fu) intravenous injection 250 mg/kg single, compound intraperitoneal injection 100 mg/kg single, 48 h before chemotherapeutic agent, cycle 10 days) read?
**A.** 0%

**Q.** And the “Relative remission rate (%)” value (Example 249, Fluorouracil (5-Fu) oral administration 300 mg/kg single, compound intramuscular injection 100 mg/kg single, 0.5 h before chemotherapeutic agent, cycle 7 days)?
**A.** 60%

**Q.** What about the “Relative remission rate (%)” value (Example 250, Fluorouracil (5-Fu) intramuscular injection 175 mg/kg single, compound oral administration 150 mg/kg single, 8 h before chemotherapeutic agent, cycle 7 days) of the same molecule?
**A.** 50%

**Q.** And the “Relative remission rate (%)” value (Example 251, Oxaliplatin intraperitoneal injection 25 mg/kg single, compound intraperitoneal injection 100 mg/kg single, 0.5 h before chemotherapeutic agent, cycle 10 days)?
**A.** 20%

**Q.** What about the “Relative remission rate (%)” value (Example 252, Oxaliplatin intraperitoneal injection 25 mg/kg single, compound intraperitoneal injection 100 mg/kg single, 1 h before chemotherapeutic agent, cycle 10 days) of the same molecule?
**A.** 20%

**Q.** And the “Relative remission rate (%)” value (Example 253, Oxaliplatin intraperitoneal injection 25 mg/kg single, compound intraperitoneal injection 100 mg/kg single, 2 h before chemotherapeutic agent, cycle 10 days)?
**A.** 40%

**Q.** And the “Relative remission rate (%)” value (Example 254, Oxaliplatin intraperitoneal injection 25 mg/kg single, compound intraperitoneal injection 100 mg/kg single, 3 h before chemotherapeutic agent, cycle 10 days)?
**A.** 40%

**Q.** What about the “Relative remission rate (%)” value (Example 255, Oxaliplatin intraperitoneal injection 25 mg/kg single, compound intraperitoneal injection 100 mg/kg single, 4 h before chemotherapeutic agent, cycle 10 days) of the same molecule?
**A.** 50%

**Q.** And the “Relative remission rate (%)” value (Example 256, Oxaliplatin intraperitoneal injection 25 mg/kg single, compound intraperitoneal injection 100 mg/kg single, 5 h before chemotherapeutic agent, cycle 10 days)?
**A.** 50%

**Q.** What about the “Relative remission rate (%)” value (Example 257, Oxaliplatin intraperitoneal injection 25 mg/kg single, compound intraperitoneal injection 100 mg/kg single, 6 h before chemotherapeutic agent, cycle 10 days) of the same molecule?
**A.** 60%

**Q.** What about the “Relative remission rate (%)” value (Example 258, Oxaliplatin intraperitoneal injection 25 mg/kg single, compound intraperitoneal injection 100 mg/kg single, 7 h before chemotherapeutic agent, cycle 10 days) of the same molecule?
**A.** 60%

**Q.** What about the “Relative remission rate (%)” value (Example 259, Oxaliplatin intraperitoneal injection 25 mg/kg single, compound intraperitoneal injection 100 mg/kg single, 8 h before chemotherapeutic agent, cycle 10 days) of the same molecule?
**A.** 30%

**Q.** What about the “Relative remission rate (%)” value (Example 260, Oxaliplatin intraperitoneal injection 25 mg/kg single, compound intraperitoneal injection 100 mg/kg single, 9 h before chemotherapeutic agent, cycle 10 days) of the same molecule?
**A.** 40%

**Q.** What about the “Relative remission rate (%)” value (Example 261, Oxaliplatin intraperitoneal injection 25 mg/kg single, compound intraperitoneal injection 100 mg/kg single, 10 h before chemotherapeutic agent, cycle 10 days) of the same molecule?
**A.** 40%

**Q.** And the “Relative remission rate (%)” value (Example 262, Oxaliplatin intraperitoneal injection 25 mg/kg single, compound intraperitoneal injection 100 mg/kg single, 11 h before chemotherapeutic agent, cycle 10 days)?
**A.** 50%

**Q.** What about the “Relative remission rate (%)” value (Example 263, Oxaliplatin intraperitoneal injection 25 mg/kg single, compound intraperitoneal injection 100 mg/kg single, 12 h before chemotherapeutic agent, cycle 10 days) of the same molecule?
**A.** 50%

**Q.** What about the “Relative remission rate (%)” value (Example 264, Oxaliplatin intraperitoneal injection 25 mg/kg single, compound intraperitoneal injection 100 mg/kg single, 14 h before chemotherapeutic agent, cycle 10 days) of the same molecule?
**A.** 30%

**Q.** What about the “Relative remission rate (%)” value (Example 265, Oxaliplatin intraperitoneal injection 25 mg/kg single, compound intraperitoneal injection 100 mg/kg single, 16 h before chemotherapeutic agent, cycle 10 days) of the same molecule?
**A.** 40%

**Q.** What about the “Relative remission rate (%)” value (Example 266, Oxaliplatin intraperitoneal injection 25 mg/kg single, compound intraperitoneal injection 100 mg/kg single, 18 h before chemotherapeutic agent, cycle 10 days) of the same molecule?
**A.** 60%

**Q.** And the “Relative remission rate (%)” value (Example 267, Oxaliplatin intraperitoneal injection 25 mg/kg single, compound intraperitoneal injection 100 mg/kg single, 20 h before chemotherapeutic agent, cycle 10 days)?
**A.** 30%

**Q.** What about the “Relative remission rate (%)” value (Example 268, Oxaliplatin intraperitoneal injection 25 mg/kg single, compound intraperitoneal injection 100 mg/kg single, 22 h before chemotherapeutic agent, cycle 10 days) of the same molecule?
**A.** 30%

**Q.** What about the “Relative remission rate (%)” value (Example 269, Oxaliplatin intraperitoneal injection 25 mg/kg single, compound intraperitoneal injection 100 mg/kg single, 24 h before chemotherapeutic agent, cycle 10 days) of the same molecule?
**A.** 40%

**Q.** And the “Relative remission rate (%)” value (Example 270, Oxaliplatin intraperitoneal injection 25 mg/kg single, compound intraperitoneal injection 100 mg/kg single, 48 h before chemotherapeutic agent, cycle 10 days)?
**A.** 0%

**Q.** What about the “Relative remission rate (%)” value (Example 275, Oxaliplatin intravenous injection 25 mg/kg single, compound intravenous injection 150 mg/kg single, 0.5 h before chemotherapeutic agent, cycle 7 days) of the same molecule?
**A.** 30%

**Q.** And the “Relative remission rate (%)” value (Example 276, Oxaliplatin intravenous injection 25 mg/kg single, compound intravenous injection 150 mg/kg single, 4 h before chemotherapeutic agent, cycle 7 days)?
**A.** 50%

**Q.** What about the “Relative remission rate (%)” value (Example 277, Oxaliplatin intravenous injection 25 mg/kg single, compound intravenous injection 150 mg/kg single, 8 h before chemotherapeutic agent, cycle 7 days) of the same molecule?
**A.** 50%

**Q.** And the “Relative remission rate (%)” value (Example 278, Oxaliplatin intravenous injection 25 mg/kg single, compound intravenous injection 150 mg/kg single, 12 h before chemotherapeutic agent, cycle 7 days)?
**A.** 40%

**Q.** What about the “Relative remission rate (%)” value (Example 279, Oxaliplatin intravenous injection 25 mg/kg single, compound intravenous injection 150 mg/kg single, 16 h before chemotherapeutic agent, cycle 7 days) of the same molecule?
**A.** 40%

**Q.** What about the “Relative remission rate (%)” value (Example 280, Oxaliplatin intravenous injection 25 mg/kg single, compound intravenous injection 150 mg/kg single, 20 h before chemotherapeutic agent, cycle 7 days) of the same molecule?
**A.** 60%

**Q.** What about the “Relative remission rate (%)” value (Example 281, Oxaliplatin intravenous injection 25 mg/kg single, compound intravenous injection 150 mg/kg single, 24 h before chemotherapeutic agent, cycle 7 days) of the same molecule?
**A.** 60%

**Q.** What about the “Relative remission rate (%)” value (Example 282, Oxaliplatin intravenous injection 25 mg/kg single, compound intravenous injection 150 mg/kg single, 48 h before chemotherapeutic agent, cycle 7 days) of the same molecule?
**A.** 0%

**Q.** What about the “Relative remission rate (%)” value (Example 286, Irinotecan (CPT-11) intraperitoneal injection 260 mg/kg single, compound intravenous injection 150 mg/kg single, 0.5 h before chemotherapeutic agent, cycle 8 days) of the same molecule?
**A.** 40%
